Some peptides are written in HELM: one residue between dots, names in brackets for other building blocks, links after the first $.
Assay: general procedure: Fmoc solid-phase peptide synthesis; Rink amide resin (loading 0.15 mmol/g); rink amide AM resin (loading = 0.33 mmol/g); HCTU/DIPEA
Conditions: whole synthesis; for isolated yield: scale of the general procedure 0.15 mmol

Substance | isolated mass [mg] | isolated yield [%]
PEPTIDE1{[ac].G.L.F.A.[S5].I.K.K.[S5].A.S.V.I.K.G.L.[am]}$PEPTIDE1,PEPTIDE1,6:R3-10:R3$$$V2.0 | 161 | 62
PEPTIDE1{[ac].G.L.F.A.V.I.K.K.V.A.S.V.I.K.G.L.[am]}$$$$V2.0 | 169 | 67
PEPTIDE1{[ac].G.L.F.A.V.I.K.K.V.A.[S5].V.I.K.[S5].L.[am]}$PEPTIDE1,PEPTIDE1,12:R3-16:R3$$$V2.0 | 166 | 62
PEPTIDE1{[ac].G.L.F.A.V.[R8].K.K.V.A.S.V.[S5].K.G.L.[am]}$PEPTIDE1,PEPTIDE1,7:R3-14:R3$$$V2.0 | 162 | 62
PEPTIDE1{[ac].G.[R8].F.A.V.I.K.K.[S5].A.S.V.I.K.G.L.[am]}$PEPTIDE1,PEPTIDE1,3:R3-10:R3$$$V2.0 | 166 | 63
PEPTIDE1{[ac].G.L.F.A.V.I.K.K.[S5].A.S.V.[S5].K.G.L.[am]}$PEPTIDE1,PEPTIDE1,10:R3-14:R3$$$V2.0 | 170 | 66
PEPTIDE1{[ac].G.[S5].F.A.V.[S5].K.K.V.A.S.V.I.K.G.L.[am]}$PEPTIDE1,PEPTIDE1,3:R3-7:R3$$$V2.0 | 161 | 63
PEPTIDE1{[ac].G.L.F.A.V.[S5].K.K.V.[S5].S.V.I.K.G.L.[am]}$PEPTIDE1,PEPTIDE1,7:R3-11:R3$$$V2.0 | 186 | 71

— PMC7758422 (Frontiers in Chemistry, 2020)
